Literature values as cited in US6297230A, “Cyanoaziridines for treating cancer” (priority 2000, dated 2001).
The name of at least one read-out is uncertain.

Tested on: MCF-7/D40 cells
Settings: cited from earlier work

CC[C@]1(O)C[C@@H]2CN(CCc3c([nH]c4ccccc34)[C@@](C(=O)OC)(c3cc4c(cc3OC)N(C)[C@H]3[C@@](O)(C(=O)OC)[C@H](OC(C)=O)[C@]5(CC)C=CCN6CC[C@]43[C@@H]65)C2)C1 [vinblastine]
Fold resistance of MCF-7/D40 cells: over 40 fold
